# Data taken from the supplement of paper PMC8728848.
# The other results are listed elsewhere or left out.
# Key:
# Experiment in all cases: glycan array binding signal (z-score within array); higher = stronger binding
# Details in all cases: glycan notation: IUPAC condensed, linker removed
# [1] = biological target: Fuc(a1-3)[Gal(b1-4)]GlcNAc(b1-3)GalNAc
# Procedure, shortened: (§1)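 Columns mapping to the same glycan were averaged after glycan names were converted to IUPAC-condensed notation. The data come from 3228 arrays in the Consortium for Functional Glycomics database, limited to those with an available protein sequence. Binding is reported as a within-array Z-score averaged across arrays of one protein sequence and across linkers.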
# [2] = biological target: Fuc(a1-3)[Gal(b1-4)]GlcNAc(b1-4)Gal(b1-4)[Fuc(a1-3)]GlcNAc
# Procedure, shortened: as §1
# [3] = biological target: Fuc(a1-3)[Gal(b1-4)]GlcNAc(b1-4)Gal(b1-4)[Fuc(a1-3)]GlcNAc(b1-4)Gal(b1-4)[Fuc(a1-3)]GlcNAc
# Procedure, shortened: as §1
# [4] = biological target: Fuc(a1-3)[Gal(b1-4)]GlcNAc(b1-6)GalNAc
# Procedure, shortened: as §1
# [5] = biological target: Fuc(a1-3)[Gal(b1-4)]GlcNAc(b1-6)[Gal(b1-3)GlcNAc(b1-3)]Gal(b1-4)Glc
# Procedure, shortened: as §1
# [6] = biological target: Fuc(a1-3)[Gal(b1-4)]GlcNAc6S
# Procedure, shortened: as §1
# [7] = biological target: Fuc(a1-3)[Gal3S(b1-4)]Glc
# Procedure, shortened: as §1
# [8] = biological target: Fuc(a1-3)[Gal3S(b1-4)]GlcNAc
# Procedure, shortened: as §1
# [9] = biological target: Fuc(a1-3)[Gal3S(b1-4)]GlcNAc6S
# Procedure, shortened: as §1
# [10] = biological target: Fuc(a1-3)[GalNAc(b1-4)]GlcNAc
# Procedure, shortened: as §1
# [11] = biological target: Fuc(a1-3)[GalNAc(b1-4)]GlcNAc6S
# Procedure, shortened: as §1
# [12] = biological target: Fuc(a1-4)GlcNAc
# Procedure, shortened: as §1
# [13] = biological target: Fuc(b1-3)GlcNAc
# Procedure, shortened: as §1
# [14] = biological target: Gal(a1-2)Gal
# Procedure, shortened: as §1
# [15] = biological target: Gal(a1-3)Gal
# Procedure, shortened: as §1
# [16] = biological target: Gal(a1-3)Gal(b1-3)GlcNAc
# Procedure, shortened: as §1
# [17] = biological target: Gal(a1-3)Gal(b1-3)GlcNAc(b1-2)Man
# Procedure, shortened: as §1
# [18] = biological target: Gal(a1-3)Gal(b1-3)GlcNAc(b1-2)Man(a1-3)[Gal(a1-3)Gal(b1-3)GlcNAc(b1-2)Man(a1-6)]Man(b1-4)GlcNAc(b1-4)GlcNAc
# Procedure, shortened: as §1
# [19] = biological target: Gal(a1-3)Gal(b1-3)GlcNAc(b1-3)GalNAc
# Procedure, shortened: as §1
# [20] = biological target: Gal(a1-3)Gal(b1-3)GlcNAc(b1-6)GalNAc
# Procedure, shortened: as §1
# [21] = biological target: Gal(a1-3)Gal(b1-3)[Fuc(a1-4)]GlcNAc(b1-2)Man(a1-3)[Gal(a1-3)Gal(b1-3)[Fuc(a1-4)]GlcNAc(b1-2)Man(a1-6)]Man(b1-4)GlcNAc(b1-4)GlcNAc
# Procedure, shortened: as §1
# [22] = biological target: Gal(a1-3)Gal(b1-4)Glc
# Procedure, shortened: as §1
# [23] = biological target: Gal(a1-3)Gal(b1-4)GlcNAc
# Procedure, shortened: as §1
# [24] = biological target: Gal(a1-3)Gal(b1-4)GlcNAc(b1-2)Man
# Procedure, shortened: as §1
# [25] = biological target: Gal(a1-3)Gal(b1-4)GlcNAc(b1-2)Man(a1-3)[Gal(a1-3)Gal(b1-4)GlcNAc(b1-2)Man(a1-6)]Man(b1-4)GlcNAc(b1-4)GlcNAc
# Procedure, shortened: as §1
# [26] = biological target: Gal(a1-3)Gal(b1-4)GlcNAc(b1-3)GalNAc
# Procedure, shortened: as §1
# [27] = biological target: Gal(a1-3)Gal(b1-4)GlcNAc(b1-6)GalNAc
# Procedure, shortened: as §1
# [28] = biological target: Gal(a1-3)Gal(b1-4)[Fuc(a1-3)]GlcNAc
# Procedure, shortened: as §1
# [29] = biological target: Gal(a1-3)Gal(b1-4)[Fuc(a1-3)]GlcNAc(b1-2)Man(a1-3)[Gal(a1-3)Gal(b1-4)[Fuc(a1-3)]GlcNAc(b1-2)Man(a1-6)]Man(b1-4)GlcNAc(b1-4)GlcNAc
# Procedure, shortened: as §1
# [30] = biological target: Gal(a1-3)GalNAc
# Procedure, shortened: as §1
# [31] = biological target: Gal(a1-3)[Gal(a1-4)]Gal(b1-4)GlcNAc
# Procedure, shortened: as §1
# [32] = biological target: Gal(a1-4)Gal(b1-3)GlcNAc(b1-2)Man(a1-3)[Gal(a1-4)Gal(b1-3)GlcNAc(b1-2)Man(a1-6)]Man(b1-4)GlcNAc(b1-4)GlcNAc
# Procedure, shortened: as §1
# [33] = biological target: Gal(a1-4)Gal(b1-4)Glc
# Procedure, shortened: as §1
# [34] = biological target: Gal(a1-4)Gal(b1-4)GlcNAc
# Procedure, shortened: as §1
# [35] = biological target: Gal(a1-4)Gal(b1-4)GlcNAc(b1-2)Man(a1-3)[Gal(a1-4)Gal(b1-4)GlcNAc(b1-2)Man(a1-6)]Man(b1-4)GlcNAc(b1-4)GlcNAc
# Procedure, shortened: as §1
# [36] = biological target: Gal(a1-4)Gal(b1-4)GlcNAc(b1-3)Gal(b1-4)Glc
# Procedure, shortened: as §1
# [37] = biological target: Gal(a1-4)GlcNAc
# Procedure, shortened: as §1
# [38] = biological target: Gal(a1-6)Glc
# Procedure, shortened: as §1
binder,measurement,setting,value
"Protein L(B1-B4) (Finegoldia magna), Q51912 (protein) KEETPETPETDSEEEVTIKANLIFANGSTQTAEFKGTFEKATSEAYAYADTLKKDNGEYTVDVADKGYTLNIKFAGKEKTPEEPKEEVTIKANLIYADGKTQTAEFKGTFEEATAEAYRYADALKKDNGEYTVDVADKGYTLNIKFAGKEKTPEEPKEEVTIKANLIYADGKTQTAEFKGTFEEATAEAYRYADLLAKENGKYTVDVADKGYTLNIKFAGKEKTPEEPKEEVTIKANLIYADGKTQTAEFKGTFAEATAEAYRYADLLAKENGKYTADLEDGGYTINIRFAG",glycan array binding signal (z-score),[1],1.01
same,glycan array binding signal (z-score),[2],1.59
same,glycan array binding signal (z-score),[3],0.587
same,glycan array binding signal (z-score),[4],1.68
same,glycan array binding signal (z-score),[5],0.06
same,glycan array binding signal (z-score),[6],1.6
same,glycan array binding signal (z-score),[7],1.95
same,glycan array binding signal (z-score),[8],-0.563
same,glycan array binding signal (z-score),[9],0.182
same,glycan array binding signal (z-score),[10],1.12
same,glycan array binding signal (z-score),[11],-0.65
same,glycan array binding signal (z-score),[12],-0.839
same,glycan array binding signal (z-score),[13],-0.378
same,glycan array binding signal (z-score),[14],-0.43
same,glycan array binding signal (z-score),[15],-0.589
same,glycan array binding signal (z-score),[16],-0.054
same,glycan array binding signal (z-score),[17],-0.707
same,glycan array binding signal (z-score),[18],1.28
same,glycan array binding signal (z-score),[19],1.35
same,glycan array binding signal (z-score),[20],0.514
same,glycan array binding signal (z-score),[21],1.97
same,glycan array binding signal (z-score),[22],0.278
same,glycan array binding signal (z-score),[23],-1.07
same,glycan array binding signal (z-score),[24],-0.04
same,glycan array binding signal (z-score),[25],0.412
same,glycan array binding signal (z-score),[26],-0.678
same,glycan array binding signal (z-score),[27],-0.013
same,glycan array binding signal (z-score),[28],-0.181
same,glycan array binding signal (z-score),[29],0.79
same,glycan array binding signal (z-score),[30],0.36
same,glycan array binding signal (z-score),[31],1.1
same,glycan array binding signal (z-score),[32],-0.513
same,glycan array binding signal (z-score),[33],0.674
same,glycan array binding signal (z-score),[34],-0.873
same,glycan array binding signal (z-score),[35],0.203
same,glycan array binding signal (z-score),[36],-0.798
same,glycan array binding signal (z-score),[37],-0.414
same,glycan array binding signal (z-score),[38],-0.568

# Quoted at random: 2 records from the list
binder,measurement,setting,value
"Protein L(B1-B4) (Finegoldia magna), Q51912 (protein) KEETPETPETDSEEEVTIKANLIFANGSTQTAEFKGTFEKATSEAYAYADTLKKDNGEYTVDVADKGYTLNIKFAGKEKTPEEPKEEVTIKANLIYADGKTQTAEFKGTFEEATAEAYRYADALKKDNGEYTVDVADKGYTLNIKFAGKEKTPEEPKEEVTIKANLIYADGKTQTAEFKGTFEEATAEAYRYADLLAKENGKYTVDVADKGYTLNIKFAGKEKTPEEPKEEVTIKANLIYADGKTQTAEFKGTFAEATAEAYRYADLLAKENGKYTADLEDGGYTINIRFAG",glycan array binding signal (z-score),[11],-0.65
same,glycan array binding signal (z-score),[7],1.95
